Reference: patent US8124655B2, “Use of LR-90 and LR-102 to overcome insulin resistance” (City of Hope, priority 2007, dated 2012)

Test system: Zucker diabetic fatty (ZDF) rat
Test: Metabolic parameters of ZDF rats treated with LR-90 (Example 1)
Format: in vivo
Conditions: mean ± SEM
Procedure: As noted, previous studies have shown that LR-90, a new inhibitor of AGE formation, prevented the development of experimental type 1 diabetic nephropathy. In the present Example, the effects of LR-90 were examined in the Zucker diabetic fatty (ZDF) rat, a model of type 2 diabetes and metabolic syndrome, and the mechanisms by which it may protect against renal injury were investigated. In this Example, male ZDF rats were treated without or with LR-90 from age 13 to 40 weeks. Metabolic and kidney functions and renal histology were evaluated. AGE accumulation and the production of the receptor for AGE (AGER) were measured. Profibrotic growth factors, extracellular matrix proteins and intracellular signalling pathways associated with glomerular and tubular damage were also analysed. […]
All animal studies were carried out in compliance with policies outlined in The Guide for the Care and Handling of Laboratory Animals (NIH Publication No. 85-23) that have been approved by the City of Hope Animal Care Committee. […] Food, water intake, body weight and blood glucose levels were monitored periodically. Systolic blood pressure was measured by tail-cuff plethysmography (CODA2 Blood Pressure System; Kent Scientific, Torrington, Conn., USA). […] Plasma glucose, lipids and Nε-(carboxymethyl)lysine-AGE Plasma glucose was measured using a glucose analyzer (2300 STAT; YSI, Yellowsprings, Ohio, USA). […]

In the case of `CC(C)(Oc1ccc(NC(=O)Nc2ccc(Cc3ccc(NC(=O)Nc4ccc(OC(C)(C)C(=O)O)cc4)c(Cl)c3)cc2Cl)cc1)C(=O)O` [LR-90, methylene bis[4,4′-(2-chlorophenylureidophenoxyisobutyric acid)]], the “Body Weight” value (LR-90 50 mg/l in drinking water from 13 to 40 weeks of age, at 40 weeks, n = 6) was 347 ± 32 g and the “Heart Rate” value (LR-90 50 mg/l in drinking water, at 40 weeks of age) was 330 ± 12 beats/min.
